Drawing on PMC5608341, “The human VGF-derived bioactive peptide TLQP-21 binds heat shock 71 kDa protein 8 (HSPA8)on the surface of SH-SY5Y cells” (PLoS ONE, 2017), this text covers MASCOT score and Sequence coverage for one substance.

The data set concerns Stress-70 protein (HSPA9/mortalin). Nature of the data set: Avidin-agarose affinity chromatography with biotin-TLQP-21, MASCOT MS/MS identification; HSPA9. To be noted: TLQP-21 as bait. It counts as binding, human.

Where no end group is shown, it is not given here. The star is where a group is joined. Biotin = O=C1N[C@H]2[C@H](CS[C@H]2CCCCC(=O)*)N1

For “Biotin-TLQPPSALRRRHYHHALPPSRC [biotin-TLQP-21, amino-terminally biotinylated human TLQP-21 containing an extra cysteine residue at the C-terminus]”, the MASCOT score (~70kDa band after affinity chromatography of SH-SY5Y cell homogenates) worked out at 431. The substance further returned a Sequence coverage (~70kDa band) of 12.5.
